Source: publication PMC2808246, “Mycobacterial Nucleoside Diphosphate Kinase Blocks Phagosome Maturation in Murine Raw 264.7 Macrophages” (PLoS ONE, 2010)
No constants are given. Whether binding was seen depends on the method and setting. Some entries that bind do so weakly or less than the wild type. Where a sequence is shown, tags or fusion partners need not be part of it.

Chains of the proteins cited; added tags and fusions are not shown.
UniProt P20339: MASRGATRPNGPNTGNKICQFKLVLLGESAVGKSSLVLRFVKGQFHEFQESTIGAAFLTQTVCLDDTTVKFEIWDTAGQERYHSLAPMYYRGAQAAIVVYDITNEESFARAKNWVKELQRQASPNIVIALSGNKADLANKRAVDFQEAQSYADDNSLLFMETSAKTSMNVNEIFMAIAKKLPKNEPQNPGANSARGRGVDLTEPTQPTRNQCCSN
UniProt P51149: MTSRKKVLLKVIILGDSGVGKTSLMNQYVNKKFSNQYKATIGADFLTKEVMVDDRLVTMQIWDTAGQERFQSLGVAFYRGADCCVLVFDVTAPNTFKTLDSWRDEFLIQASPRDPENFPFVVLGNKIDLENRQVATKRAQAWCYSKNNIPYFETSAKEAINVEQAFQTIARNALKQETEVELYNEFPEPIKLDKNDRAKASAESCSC

Tests used:
[1] = target: T1, Mycobacterium tuberculosis nucleoside diphosphate kinase (Ndk), recombinant (Mycobacterium tuberculosis) (UniProt P9WJH7); assay: ELISA; microplates coated with 10 µg/ml Mtb or M. smegmatis Ndk (or control BSA, subtracted); 1 h with increasing concentrations of Rab5 or Rab7 preloaded with 1 mM GTP (50 mM HEPES pH 7.4, 50 mM NaCl, 0.1 mM DTT, 5 mM EDTA, 1 mg/ml BSA); detected with rabbit anti-Rab5 or anti-Rab7 and anti-rabbit-HRP, A450; both purified
T1 sequence: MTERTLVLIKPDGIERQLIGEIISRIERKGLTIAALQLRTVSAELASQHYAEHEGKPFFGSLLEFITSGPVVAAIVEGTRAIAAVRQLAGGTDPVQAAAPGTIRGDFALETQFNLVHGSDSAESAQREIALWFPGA

[2] = target: T2, Mycobacterium smegmatis nucleoside diphosphate kinase (Ndk), recombinant (Mycobacterium smegmatis) (UniProt O85501); assay: as above
T2 sequence: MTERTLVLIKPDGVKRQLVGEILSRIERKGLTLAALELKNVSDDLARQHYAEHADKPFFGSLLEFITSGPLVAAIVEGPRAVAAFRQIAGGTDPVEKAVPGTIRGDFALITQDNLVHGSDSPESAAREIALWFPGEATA

[3] = target: T1, Mycobacterium tuberculosis nucleoside diphosphate kinase (Ndk), recombinant (Mycobacterium tuberculosis); assay: co-IP; recombinant Ndk (3 µg) and GTP-loaded Rab5 or Rab7 (3 µg) in PBS, 1 h at 4°C; anti-Ndk antibodies (1:100) and protein A agarose beads; western blot with anti-Ndk and anti-Rab5 or anti-Rab7; both purified

Measured: binding

Rab5a GTPase, recombinant, GTP-loaded (from UniProt P20339 1-215)
binds: all assays above

Rab7 GTPase, recombinant, GTP-loaded (from UniProt P51149 1-207)
binds: all assays above
